Laboratory results published in paper PMC9928461.
No constants are given. Whether binding was seen depends on the method and setting. Binding seen in cells or lysates may run through a third protein. Here binding means that the protein was enriched with, or labelled near, the bait; the list need not be complete.

Amino acid sequences for entries named in this document (tags omitted). A change or cut given only in a name is not applied to a line headed by its entry.
UniProt Q4VPP2: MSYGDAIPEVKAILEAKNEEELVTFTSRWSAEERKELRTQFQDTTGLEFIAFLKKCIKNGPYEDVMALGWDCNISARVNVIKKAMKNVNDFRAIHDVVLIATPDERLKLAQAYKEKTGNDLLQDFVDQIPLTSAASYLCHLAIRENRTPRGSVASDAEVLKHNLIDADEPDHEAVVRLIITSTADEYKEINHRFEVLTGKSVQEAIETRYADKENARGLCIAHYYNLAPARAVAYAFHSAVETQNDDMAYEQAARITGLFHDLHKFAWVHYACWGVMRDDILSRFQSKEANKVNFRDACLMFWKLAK
UniProt E2RTS6: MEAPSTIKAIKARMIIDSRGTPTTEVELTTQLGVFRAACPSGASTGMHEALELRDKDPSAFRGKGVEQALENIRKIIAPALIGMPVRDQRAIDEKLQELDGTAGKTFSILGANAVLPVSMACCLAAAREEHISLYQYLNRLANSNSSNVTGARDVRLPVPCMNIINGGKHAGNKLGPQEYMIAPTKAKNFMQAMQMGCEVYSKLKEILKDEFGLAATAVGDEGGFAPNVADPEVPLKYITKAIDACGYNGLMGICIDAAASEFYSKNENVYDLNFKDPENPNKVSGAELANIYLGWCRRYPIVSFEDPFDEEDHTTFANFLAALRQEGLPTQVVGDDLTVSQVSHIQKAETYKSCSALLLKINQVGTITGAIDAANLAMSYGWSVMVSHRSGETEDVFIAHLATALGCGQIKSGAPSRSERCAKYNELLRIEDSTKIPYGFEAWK
UniProt A8BK79: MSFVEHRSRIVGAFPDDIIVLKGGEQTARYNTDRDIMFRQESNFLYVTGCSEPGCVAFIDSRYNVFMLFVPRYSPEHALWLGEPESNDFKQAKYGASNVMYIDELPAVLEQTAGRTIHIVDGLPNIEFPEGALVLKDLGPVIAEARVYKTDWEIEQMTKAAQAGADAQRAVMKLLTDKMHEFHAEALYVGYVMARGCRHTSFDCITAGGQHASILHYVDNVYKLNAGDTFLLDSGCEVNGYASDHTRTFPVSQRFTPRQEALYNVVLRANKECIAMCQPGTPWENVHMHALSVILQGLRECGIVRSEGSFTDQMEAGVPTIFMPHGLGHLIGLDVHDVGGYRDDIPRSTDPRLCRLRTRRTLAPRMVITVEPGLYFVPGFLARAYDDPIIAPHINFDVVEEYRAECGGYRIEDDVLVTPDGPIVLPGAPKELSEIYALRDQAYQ

How the values were obtained:
Experiment in all cases: affinity purification with mass spectrometry; co-IP in limited cross-linking conditions: cells fixed in 2.25% formaldehyde in PBS 30 min, RIPA-SDS/RIPA-Triton extract, HA-tagged bait captured on anti-HA agarose beads overnight at 4°C, LC-MS; hits ranked by average relative iBAQ over at least two biological replicates
[1] = biological target: GL50803_17153 alpha 11-giardin (Giardia lamblia WBA C6 (ATCC 50803)) (UniProt Q4VPP2)
[2] = biological target: GL50803_11118 Enolase (Giardia lamblia WBA C6 (ATCC 50803)) (UniProt E2RTS6)
[3] = biological target: GL50803_17327 Xaa-Pro dipeptidase (Giardia lamblia WBA C6 (ATCC 50803)) (UniProt A8BK79)

| Substance | binding [1] | binding [2] | binding [3] |
| --- | --- | --- | --- |
| GL50803_11118 Enolase (from UniProt E2RTS6) (enzyme) | binds | – | – |
| GL50803_17153 alpha 11-giardin (from UniProt Q4VPP2) | – | binds | binds |
| GL50803_17327 Xaa-Pro dipeptidase (from UniProt A8BK79) (enzyme) | binds | – | – |
